The supplement of paper PMC12067093, “Discovery and optimisation of a covalent ligand for TRIM25 and its application to targeted protein ubiquitination” (Chemical Science, 2025)
The other results are listed elsewhere or left out.

compound: Cc1cc(ccc1-c1ccccc1)C(=O)N1CCCN(CC1)C(=O)CCl [compound 10]; experiment: probe-labelled cysteine peptide fold change vs DMSO (competition) (log2 fold change); higher = less target engagement (more negative = stronger competition); conditions: 10 µM; THP-1; incubation time: 4 h
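Also: competitive profiling in live THP-1 cells: cysteine peptides tagged with an iodoacetamide desthiobiotin (IA-DTB) probe, intensity after compound treatment relative to DMSO-treated cells.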

Target | probe-labelled cysteine peptide fold change
INTS13_Q9NVM9_406_SILEDPPSISEGCGGR (UniProt Q9NVM9) | -0.197
IRF3_Q14653_267_HVLSCLGGGLALWR (UniProt Q14653) | -0.218
IRF2BP2_Q7Z5L9_521_LEDTHFVQCPSVPSHK (UniProt Q7Z5L9) | 0.131
IPO7_O95373_736_VLTGVAGEDAECHAAK (UniProt O95373) | -0.0443
INTS14_Q96SY0_218_CGHLTADVQVFPRPEPFVVDEEIDPIPK (UniProt Q96SY0) | 0.177
IQGAP1_P46940_57_WMEACLGEDLPPTTELEEGLR (UniProt P46940) | -0.191
IRF2BP2_Q7Z5L9_509_EVGGQGAGNTGGLEPVHPASLPDSSLATSAPLCCTLCHER (UniProt Q7Z5L9) | -0.103
ITGB1_P05556_75_GCPPDDIENPR (UniProt P05556) | -0.242
ITGB1_P05556_64_CDDLEALK (UniProt P05556) | -0.155
INTS11_Q5TA45_542_DHCVQHLPDGSVTVESVLLQAAAPSEDPGTK (UniProt Q5TA45) | -0.12
ITGB2_P05107_445_ALGFTDIVTVQVLPQCECR (UniProt P05107) | 0.0381
ITGB1_P05556_500_HCECSTDEVNSEDMDAYCR (UniProt P05556) | -0.0207
ITGB1_P05556_618_GICECGVCK (UniProt P05556) | 0.0575
ITGAM_P11215_654_VCLHVQK (UniProt P11215) | -0.0926
INTS10_Q9NVR2_387_TMSSDDEDCSAK (UniProt Q9NVR2) | -0.32
IP6K2_Q9UHH9_104_GDHGIVDIVDNSDCEPK (UniProt Q9UHH9) | -0.102
ITGB1_P05556_691_DKLPQPVQPDPVSHCK (UniProt P05556) | -0.108
IRF2BPL_Q9H1B7_385_DTLLTLAGCTPYEVR (UniProt Q9H1B7) | 0.193
IQGAP3_Q86VI3_1254_ACQVPEPEER (UniProt Q86VI3) | 0.125
ITGA7_Q13683_539+546_SIDLEQPNCAGGHSVCVDLR (UniProt Q13683) | -0.529

Random excerpt: 2 records from the list.
Target | probe-labelled cysteine peptide fold change
ITGA7_Q13683_539+546_SIDLEQPNCAGGHSVCVDLR (UniProt Q13683) | -0.529
INTS11_Q5TA45_542_DHCVQHLPDGSVTVESVLLQAAAPSEDPGTK (UniProt Q5TA45) | -0.12

Further results

Target | probe-labelled cysteine peptide fold change
ITGAV_P06756_97_CQPIEFDATGNR (UniProt P06756) | -0.0783
IPO7_O95373_504_CLIDDREMPVK (UniProt O95373) | -0.0369
IRF2BP1_Q8IU81_518_ERLEDTHFVQCPSVPGHK (UniProt Q8IU81) | -0.195
IRF2BP1_Q8IU81_207_NADCLAELNEAMR (UniProt Q8IU81) | -0.315
ITGB2_P05107_467_GFLECGICR (UniProt P05107) | 0.0535
IRF2BP2_Q7Z5L9_19_QSCYLCDLPR (UniProt Q7Z5L9) | 0.0424
ITGA5_P08648_921_CELGPLHQQESQSLQLHFR (UniProt P08648) | -0.263
ITGAM_P11215_144_GCPQEDSDIAFLIDGSGSIIPHDFR (UniProt P11215) | 0.335
IQGAP1_P46940_57_RWMEACLGEDLPPTTELEEGLR (UniProt P46940) | 0.00789
INTS13_Q9NVM9_556_VLECLMACR (UniProt Q9NVM9) | -0.0534
IPO4_Q8TEX9_350_LCPQLMPMLEEALR (UniProt Q8TEX9) | -0.16
IREB2_P48200_604_QGDLVTCGILSGNK (UniProt P48200) | -0.0239
INTS8_Q75QN2_42_KPCPDPAPVQLIVQFLEQASKPSVNEQNQVQPPPDNKR (UniProt Q75QN2) | -0.241
ISG20L2_Q9H9L3_295_KADCPENATMSLK (UniProt Q9H9L3) | 0.0343
IQGAP3_Q86VI3_74_LGHCFAPSVVPLK (UniProt Q86VI3) | -0.0108
ITPK1_Q13572_126_KIEAYMEDDRICSPPFMELTSLCGDDTMR (UniProt Q13572) | -0.164
IPO9_Q96P70_90_QYVETHWCAQSEK (UniProt Q96P70) | -0.058
ITGB2_P05107_73_GCAADDIMDPTSLAETQEDHNGGQK (UniProt P05107) | 0.0624
INTS1_Q8N201_1534_SGEQCSVEPDLISK (UniProt Q8N201) | 0.025
